PubChem BioAssay AID504467 (National Center for Advancing Translational Sciences (NCATS), 2011)
Hit rate of the full screen: of about 330,000 compounds, about 7,700 (2.3%) were called active. This list was built around the results that the source calls inconclusive (neither active nor inactive); the mix of calls is not that of the screen. The call rests on the fitted dose curve; in most records, active means well fitted inhibition curve with a large enough effect; inconclusive means small, poorly fitted or top-dose-only effect, or effect the other way; inactive means flat fitted curve, though single readings scatter. Potencies beside an inconclusive call are fits to weak or partial responses and may not hold up.

test: qHTS screen for small molecules that inhibit ELG1-dependent DNA repair in human embryonic kidney (HEK293T) cells expressing luciferase-tagged ELG1; conditions: HEK293T ELG1-luciferase reporter, luminescence, 16 h, DNA damage induced by 5-fluorouridine; series mostly up to 46.1 µM; further: nearly all actives have a fitted effect of over 55% in size
Procedure, shortened: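 5-Fluorouridine DNA damage + compound/DMSO, 2,000 cells/well, 16 h, 37 °C/5% CO2. ONE-Glo, 30 min RT, luminescence. Readout = decrease in reporter signal.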
Potency means the concentration at half of the fitted maximal effect.

SMILES	Potency
CCOC(=O)N1CCC(NC(=O)CS(=O)(=O)Cc2nc(-c3ccc(C)cc3)oc2C)CC1	inconclusive: 23.1 µM [inhibitor, partial curve]
CCOC(=O)N1CCN(C(=O)c2ccc(-n3c(=S)[nH]c4ccccc4c3=O)cc2)CC1	inconclusive: 25.9 µM [inhibitor, partial curve, poor fit]
CC(OC(=O)C1CC(=O)N(Cc2ccco2)C1)C(=O)Nc1cccc(C#N)c1 (configuration not stated)	inactive
O=C(CCS(=O)(=O)c1ccccc1)NC1CCCC1	inconclusive: 29.1 µM [activator, single point]
CCOc1ccc(/C=N/OCC(=O)NCc2ccc3c(c2)OCO3)cc1OC	inconclusive: 25.9 µM [inhibitor, single point]
COc1ccc(-c2cc(C(=O)N3CCCC(C(F)(F)F)C3)c3ccccc3n2)cc1OC (configuration not stated)	inconclusive: 4.61 µM [inhibitor, single point]
Oc1c(C=Nc2cccnc2)sc2ccccc12	inconclusive: 7.31 µM [activator, single point]
O=C(NCc1nnc2c(C(F)(F)F)cc(Cl)cn12)c1ccco1	inconclusive: 18.3 µM [activator, partial curve, poor fit]
COc1ccc(NC(=O)CN(C)C(=O)c2cc(CN3C(=O)c4ccccc4C3=O)ccc2OC)cc1	inactive
Cc1ccc(-c2cc(C(=O)N3CCCc4ccccc43)no2)cc1	inconclusive: 13 µM [activator, partial curve]
COc1ccc(C(=O)Nc2ccc([N+](=O)[O-])cn2)cc1OC	inconclusive: 29.1 µM [inhibitor, single point]
Cc1ccnc(NC(=O)Nc2cccc(F)c2)n1	inconclusive: 8.2 µM [activator, partial curve]
COc1ccc(-c2coc3cc4oc(=O)cc(-c5ccccc5)c4cc23)cc1F	inactive
COc1ccc(C(C(=O)NCC2CCCO2)N(C(=O)c2snc(C(N)=O)c2N)c2ccccc2C)cc1OC (configuration not stated)	inactive
CC(=O)Nc1c(-c2ccccc2)nc2cc(C)ccn12	inconclusive: 5.62 µM [inhibitor, single point]
COc1ccccc1-c1cc(C(F)(F)F)nc(S(=O)(=O)CCCC(=O)N2CCOCC2)n1	inconclusive: 25.9 µM [inhibitor, single point]
O=C(CSc1ccc(-c2nc3ccccc3[nH]2)cn1)Nc1ccc(S(=O)(=O)NC2CC2)cc1	inactive
CC(Sc1nn(-c2ccc(Cl)cc2)c(=S)s1)C(=O)NCC1CCCO1 (configuration not stated)	inactive
COc1ccc(OC)c(N(CC(=O)NCc2ccccc2)S(=O)(=O)c2ccc(OC)c(OC)c2)c1	inactive
O=C(Nc1ccncc1)c1ccc(-c2ccccc2)cc1	active: 1.83 µM
CCOC(=O)c1sc2nc(C)nc(N3CCN(c4ncccn4)CC3)c2c1C	inconclusive: 20.6 µM [inhibitor, single point]
O=C(NNC(=S)Nc1ccc(F)c(Cl)c1)C1CC1	inactive
NC(=O)c1cc(Cl)ccc1OCC(=O)NC1CC1	inconclusive: 14.6 µM [activator, single point]
Cc1ccc(C(=O)Nc2ccc(N3CCCCC3)cc2)cc1	inconclusive: 2.06 µM [activator, full curve]

SMILES	Potency
O=C(CNc1n[nH]c(=O)[nH]c1=O)N/N=C/c1cccnc1	inactive
O=C(NCc1cccs1)c1noc2c1CCCCC2	inconclusive: 11.6 µM [activator, single point]
CNc1oc(-c2ccccc2Cl)nc1C#N	inconclusive: 23.1 µM [activator, partial curve, poor fit]
CCCC(=O)c1ccc(N2CCN(C(=O)OCC)CC2)c(F)c1	inactive
O=C(CNC(=O)c1cccc(Br)c1)N/N=C/c1cccnc1	inconclusive: 20.6 µM [activator, partial curve, poor fit]
Cc1ccccc1N1CCN(Cc2cccc(C(=O)O)c2)CC1	inactive
O=C(CSCc1ccc(Cl)cc1)N/N=C/c1ccccc1	inactive
O=C(CC(c1ccccc1)c1ccccc1)NCc1cccnc1	inconclusive: 18.4 µM [inhibitor, single point]
Cc1cc2nc(/C=C/c3cccnc3)[nH]c2cc1C	inconclusive: 2.59 µM [activator, full curve]
O=C(c1cc(COc2ccc3ncccc3c2)on1)N1CCCCCC1	inconclusive: 2.06 µM [inhibitor, partial curve]
CC(Sc1nc2ccccc2n1C)C(=O)Nc1ccc(N2CCOCC2)cc1 (configuration not stated)	inconclusive: 2.59 µM [activator, partial curve, poor fit]
CC(=O)c1ccc(NC(=O)Cn2nc(C)cc2C)cc1	inactive
O=C(NCc1ccc(F)cc1)c1ccc(CS(=O)(=O)c2ccc(Br)cc2)o1	inconclusive: 29.1 µM [inhibitor, single point]
CC(C)CC(=O)Nc1cccc(-c2csc(-c3ccccc3)n2)c1	inconclusive: 23.1 µM [inhibitor, single point]
Cc1ccc(NC(=O)C2CC2c2ccccc2)c([N+](=O)[O-])c1 (configuration not stated)	inconclusive: 20.6 µM [activator, partial curve, poor fit]
CC(C)CCNC(=O)NC(=O)COC(=O)C1=COCCO1	inactive
Clc1ccc(-c2csc(N3CCOCC3)n2)cc1	inconclusive: 20.6 µM [activator, partial curve]
COc1ccc(C2=NN(C3=NN=C(N)Cc4ncnn43)C(O)(C(F)(F)F)C2)cc1 (configuration not stated)	inactive
CC(C)Cn1c(SCC(=O)N2CCc3ccccc3C2)nc2cc(Cl)ccc2c1=O	active: 18.4 µM
O=C(Oc1c(-c2ccccc2)c(=O)n2c3c(cccc13)CC2)c1ccc(Cl)cc1	inconclusive: 11.6 µM [activator, partial curve, poor fit]
O=[N+]([O-])c1ccc(CSc2nnc(-c3cnccn3)o2)cc1	inactive
Cc1cc(N2C(=O)C(=O)/C(=C(/O)c3ccc(F)cc3)C2c2ccc(Cl)cc2)no1 (configuration not stated)	inconclusive: 18.4 µM [inhibitor, single point]
Cc1cccc(N2CCN(C(=O)C3CCN(S(=O)(=O)c4cccc5cccnc45)CC3)CC2C)c1 (configuration not stated)	active: 18.4 µM
Cc1cc(NC(=O)COC(=O)Cn2[nH]c(=O)c3ccccc3c2=O)c([N+](=O)[O-])cc1C	inactive

Entries listed so far containing four or more nitrogen atoms:
SMILES	Potency
CCOC(=O)N1CCN(C(=O)c2ccc(-n3c(=S)[nH]c4ccccc4c3=O)cc2)CC1	inconclusive: 25.9 µM [inhibitor, partial curve, poor fit]
O=C(NCc1nnc2c(C(F)(F)F)cc(Cl)cn12)c1ccco1	inconclusive: 18.3 µM [activator, partial curve, poor fit]
Cc1ccnc(NC(=O)Nc2cccc(F)c2)n1	inconclusive: 8.2 µM [activator, partial curve]
COc1ccc(C(C(=O)NCC2CCCO2)N(C(=O)c2snc(C(N)=O)c2N)c2ccccc2C)cc1OC (configuration not stated)	inactive
O=C(CSc1ccc(-c2nc3ccccc3[nH]2)cn1)Nc1ccc(S(=O)(=O)NC2CC2)cc1	inactive
CCOC(=O)c1sc2nc(C)nc(N3CCN(c4ncccn4)CC3)c2c1C	inconclusive: 20.6 µM [inhibitor, single point]
O=C(CNc1n[nH]c(=O)[nH]c1=O)N/N=C/c1cccnc1	inactive
O=C(CNC(=O)c1cccc(Br)c1)N/N=C/c1cccnc1	inconclusive: 20.6 µM [activator, partial curve, poor fit]
CC(Sc1nc2ccccc2n1C)C(=O)Nc1ccc(N2CCOCC2)cc1 (configuration not stated)	inconclusive: 2.59 µM [activator, partial curve, poor fit]
COc1ccc(C2=NN(C3=NN=C(N)Cc4ncnn43)C(O)(C(F)(F)F)C2)cc1 (configuration not stated)	inactive
O=[N+]([O-])c1ccc(CSc2nnc(-c3cnccn3)o2)cc1	inactive
Cc1cccc(N2CCN(C(=O)C3CCN(S(=O)(=O)c4cccc5cccnc45)CC3)CC2C)c1 (configuration not stated)	active: 18.4 µM
Cc1cc(NC(=O)COC(=O)Cn2[nH]c(=O)c3ccccc3c2=O)c([N+](=O)[O-])cc1C	inactive

The list goes on.

SMILES	Potency
COc1ccc(C2C(C#N)=C(C)NC3=C2S(=O)(=O)c2ccccc23)cc1 (configuration not stated)	inconclusive: 32.6 µM [inhibitor, single point]
CCN1CCN(Cc2ccc(NC(=O)c3ccc(C)c(NC(=O)c4cccc(-c5cn[nH]c(=O)c5)c4)c3)cc2C(F)(F)F)CC1	inconclusive: 8.2 µM [inhibitor, single point]
CCOc1cc(S(=O)(=O)NCc2ccc(OC)cc2)c(OCC)cc1-n1cnnn1	inactive
COCC1CCN(Cc2nc(Cc3ccccc3Cl)no2)CC1	inconclusive: 16.4 µM [activator, partial curve]
CC(OC(=O)CNC(=O)c1sc2ccccc2c1Cl)c1ccccc1 (configuration not stated)	inactive
CCCS(=O)(=O)Nc1c(C(=O)O)[nH]c2ccccc12	inconclusive: 18.4 µM [activator, partial curve]
CC(C)CCN1C(=O)c2ccc(C(=O)OCC(=O)N(CC(C)C)C3CCS(=O)(=O)C3)cc2C1=O (configuration not stated)	inconclusive: 11.6 µM [activator, partial curve]
COc1cc(OC)c(C(=O)OCC(=O)NC23CC4CC(CC(C4)C2)C3)cc1OC	inactive
O=C(NNC1=NS(=O)(=O)c2ccccc21)c1ccc([N+](=O)[O-])cc1	inactive
CCc1ccc(C(C)NC(=S)NCc2ccc(F)cc2)cc1 (configuration not stated)	inactive
COc1cc(COC(=O)c2cnc(C)cn2)c(OC)cc1Br	inconclusive: 20.6 µM [activator, partial curve, poor fit]
CCOC(=O)C1=C(O)/C(=C/c2cn(CC(=O)N3CCCC3)c3ccccc23)SC1=Nc1ccccc1	active: 4.11 µM
COc1cc2[nH]c(C(=O)N3CCN(c4ccccc4F)CC3)cc2c(OC)c1OC	inactive
CCCc1n[nH]c2c1/C(=N\OCC)CC(C)(C)C2	inconclusive: 5.8 µM [activator, partial curve, poor fit]
COc1ccc(OC)c(C(c2nnnn2C2CCCC2)N2CCc3ccccc3C2)c1 (configuration not stated)	inactive
COc1ccc(S(=O)(=O)N2CCCCC2)cc1Br	inactive
Cc1nc2ccc(NC(=O)Cc3cccs3)cc2s1	inconclusive: 5.01 µM [activator, partial curve]
Cc1cccc2sc(NC(=O)CN(C)S(=O)(=O)c3cccs3)nc12	inconclusive: 29.1 µM [inhibitor, single point]
OCCN1CCN(c2nc(-c3ccccc3O)nc3ccccc23)CC1	inconclusive: 23.1 µM [inhibitor, partial curve, poor fit]
O=C1OC(C(=O)Nc2ccccc2)Cc2ccccc21 (configuration not stated)	inconclusive: 23.1 µM [activator, partial curve]
CCN(CC)S(=O)(=O)c1cccc(C(=O)N/N=C(\C)c2cccs2)c1	inconclusive: 4.11 µM [activator, full curve]
O=C(NCCCN1CCOCC1)c1cc(-c2ccco2)nc2ccccc12	inactive
COc1ccc(C(=O)N/N=C(\C)CC(=O)Nc2ccc(N(C)C)cc2)c(OC)c1	inconclusive: 10 µM [activator, partial curve, poor fit]
COc1ccc([N+](=O)[O-])cc1NC(=O)c1ccco1	inactive

Two entries picked at random from the list so far:
SMILES	Potency
CCc1ccc(C(C)NC(=S)NCc2ccc(F)cc2)cc1 (configuration not stated)	inactive
CCOC(=O)C1=C(O)/C(=C/c2cn(CC(=O)N3CCCC3)c3ccccc23)SC1=Nc1ccccc1	active: 4.11 µM
